In paper PMC8913663 one finds binding data, which are given here for two molecules.

Sequences of proteins named here, by UniProt entry; tags and fusion partners are left off.
UniProt P67809: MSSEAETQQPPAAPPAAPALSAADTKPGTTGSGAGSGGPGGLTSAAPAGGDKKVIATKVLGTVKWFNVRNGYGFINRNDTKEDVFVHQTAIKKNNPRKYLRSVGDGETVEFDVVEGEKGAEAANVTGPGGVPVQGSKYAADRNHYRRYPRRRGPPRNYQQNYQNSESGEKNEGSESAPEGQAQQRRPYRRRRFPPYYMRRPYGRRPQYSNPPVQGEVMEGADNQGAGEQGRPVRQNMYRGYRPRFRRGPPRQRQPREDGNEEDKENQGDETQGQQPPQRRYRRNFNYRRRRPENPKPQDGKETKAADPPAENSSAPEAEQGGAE

These are yes or no findings as the source states them, for the method shown. Binding seen in cells or lysates may run through a third protein. Some binding calls cover weakened binding; strength is not graded here. For part of these data: Sequences can lack the tags named with a protein.

For assay [1], the target named is YBX-1, transfected (human) (UniProt P67809). Put plainly: co-IP; lysate of HEK293T cells transfected with expression vectors for GFP-SIAH1, GFP-SIAH1∆N and YBX-1; legend: pulled down by anti-YBX-1, immunoblotted with anti-GFP.
Assay [2] concerns the target YBX-1 (Y box-binding protein), endogenous (human (endogenous in HEK293T)) (UniProt P67809). Put plainly: co-IP; lysate of HEK293T cells transfected with GFP-tagged SIAH1 or GFP-Vector; 'mutual co-IP'; legend: pulled down by anti-YBX-1, immunoblotted with anti-GFP; magnetic beads, 4 °C overnight.
Assay [3] shares this target. Put plainly: co-IP; lysate of untransfected 293 cells, endogenous proteins; legend: pulled down by anti-YBX-1 and anti-IgG, immunoblotted with anti-SIAH1.

B1: GFP-tagged SIAH1 (enzyme, UniProt Q8IUQ4 1-282)
chain: MSRQTATALPTGTSKCPPSQRVPALTGTTASNNDLASLFECPVCFDYVLPPILQCQSGHLVCSNCRPKLTCCPTCRGPLGSIRNLAMEKVANSVLFPCKYASSGCEITLPHTEKADHEELCEFRPYSCPCPGASCKWQGSLDAVMPHLMHQHKSITTLQGEDIVFLATDINLPGAVDWVMMQSCFGFHFMLVLEKQEKYDGHQQFFAIVQLIGTRKQAENFAYRLELNGHRRRLTWEATPRSIHEGIATAIMNSDCLVFDTSIAQLFAENGNLGINVTISMC
As for B1, the binding result in assay [1] and in assay [2] was “binds” in each case.

B2: SIAH1, endogenous (enzyme, UniProt Q8IUQ4 1-282)
chain: MSRQTATALPTGTSKCPPSQRVPALTGTTASNNDLASLFECPVCFDYVLPPILQCQSGHLVCSNCRPKLTCCPTCRGPLGSIRNLAMEKVANSVLFPCKYASSGCEITLPHTEKADHEELCEFRPYSCPCPGASCKWQGSLDAVMPHLMHQHKSITTLQGEDIVFLATDINLPGAVDWVMMQSCFGFHFMLVLEKQEKYDGHQQFFAIVQLIGTRKQAENFAYRLELNGHRRRLTWEATPRSIHEGIATAIMNSDCLVFDTSIAQLFAENGNLGINVTISMC
With B2, the binding entry in assay [3] is reported as “binds”.
